# Experimental data taken from US8242251B2, “Unsymmetrical cyanine dimer compounds and their application” (Life Technologies Corporation, priority 2003, dated 2012).
# System: RNA versus DNA
# Assay: Screening of fluorescence properties and relative fluorescence enhancement with RNA versus DNA (Table 3)
# Format: binding
# Conditions: Complex with nucleic acid
SMILES,Excitation/Emission (nm): emission,Excitation/Emission (nm): excitation
C[n+]1c(/C=C2\C=C(SCCCCCCCCCSC3=C/C(=C\c4sc5ccccc5[n+]4C)c4ccccc4N3c3ccccc3)N(c3ccccc3)c3ccccc32)sc2ccccc21 [Compound 1],M (M = excitation of about 480-510 nm and emission of about 510-540 nm.),M (M = excitation of about 480-510 nm and emission of about 510-540 nm.)
C[n+]1c(/C=C2\C=C(N3CCN(C4=C/C(=C\c5sc6ccccc6[n+]5C)c5ccccc5N4c4ccccc4)CC3)N(c3ccccc3)c3ccccc32)sc2ccccc21.[Cl-].[Cl-] [Compound 6],M (M = excitation of about 480-510 nm and emission of about 510-540 nm.),M (M = excitation of about 480-510 nm and emission of about 510-540 nm.)
C[n+]1c(/C=C2\C=C(Sc3nnc(SC4=C/C(=C\c5sc6ccccc6[n+]5C)c5ccccc5N4c4ccccc4)s3)N(c3ccccc3)c3ccccc32)sc2ccccc21.[Cl-].[Cl-] [Compound 7],M (M = excitation of about 480-510 nm and emission of about 510-540 nm.),M (M = excitation of about 480-510 nm and emission of about 510-540 nm.)
CN1/C(=C\c2c/c(=N/C3CCC(/N=c4/cc(/C=C5/Sc6ccccc6N5C)c5ccccc5n4-c4ccccc4)CC3)n(-c3ccccc3)c3ccccc23)Sc2ccccc21 (stereo not shown) [Compound 8],M (M = excitation of about 480-510 nm and emission of about 510-540 nm.),M (M = excitation of about 480-510 nm and emission of about 510-540 nm.)
CN1/C(=C\c2c/c(=N/N3CCN(/N=c4/cc(/C=C5/Sc6ccccc6N5C)c5ccccc5n4-c4ccccc4)CC3)n(-c3ccccc3)c3ccccc23)Sc2ccccc21 [Compound 9],M (M = excitation of about 480-510 nm and emission of about 510-540 nm.),M (M = excitation of about 480-510 nm and emission of about 510-540 nm.)
C[n+]1c(/C=C2\C=C(N(CCC[N+](C)(C)C)CCC[N+](C)(C)C)N(CCCCCCCCCCN3C(N(CCC[N+](C)(C)C)CCC[N+](C)(C)C)=C/C(=C\c4sc5ccccc5[n+]4C)c4ccccc43)c3ccccc32)sc2ccccc21.Cl.Cl [Compound 13],M (M = excitation of about 480-510 nm and emission of about 510-540 nm.),M (M = excitation of about 480-510 nm and emission of about 510-540 nm.)
C[n+]1c(/C=C2\C=C(N3CCNCCN(C4=C/C(=C\c5sc6ccccc6[n+]5C)c5ccccc5N4c4ccccc4)CCNCC3)N(c3ccccc3)c3ccccc32)sc2ccccc21.[Cl-].[Cl-] [Compound 15],M (M = excitation of about 480-510 nm and emission of about 510-540 nm.),M (M = excitation of about 480-510 nm and emission of about 510-540 nm.)
C[n+]1c(/C=C/C=C2/C=CN(c3ccccc3)C(N3CCN(C4=C/C(=C\C=C\c5sc6ccccc6[n+]5C)C=CN4c4ccccc4)CC3)=C2)sc2ccccc21 [Compound 18],620 nm,570 nm
COc1ccc2c(c1)N(c1ccccc1)C(N1CCN(C3=C/C(=C\c4sc5ccccc5[n+]4C)c4ccc(OC)cc4N3c3ccccc3)CC1)=C/C2=C\c1sc2ccccc2[n+]1C.[I-].[I-] [Compound 19],M (M = excitation of about 480-510 nm and emission of about 510-540 nm.),M (M = excitation of about 480-510 nm and emission of about 510-540 nm.)
C[n+]1c(/C=C2\C=C(N3CCN(C4=C/C(=C\c5oc6ccccc6[n+]5C)c5ccccc5N4c4ccccc4)CC3)N(c3ccccc3)c3ccccc32)oc2ccccc21.[Cl-].[Cl-] [Compound 20],M (M = excitation of about 480-510 nm and emission of about 510-540 nm.),M (M = excitation of about 480-510 nm and emission of about 510-540 nm.)
CN1/C(=C\c2ccn(-c3ccccc3)/c(=N\N3CCN(/N=c4/cc(/C=C5/Sc6ccccc6N5C)c5ccccc5n4-c4ccccc4)CC3)c2)Sc2ccccc21 [Compound 25],M (M = excitation of about 480-510 nm and emission of about 510-540 nm.),M (M = excitation of about 480-510 nm and emission of about 510-540 nm.)

# Some compounds share one range, which may span the group rather than tell each member.
